Laboratory results from the supplement of paper PMC3334620.
Whole data set: some 33,000 sequences, median “E-score (-0.5 to 0.5)” near -0.015, cut for the highest 2% near 0.3. The list shows a part of the results.

target: T1, Abf1 (UniProt P14164); test: PBM E-score (8-mer binding enrichment) (E-score (-0.5 to 0.5)); higher = stronger / more preferred TF binding; details: protein concentration: 200 nM; construct: GST-full length
T1 sequence: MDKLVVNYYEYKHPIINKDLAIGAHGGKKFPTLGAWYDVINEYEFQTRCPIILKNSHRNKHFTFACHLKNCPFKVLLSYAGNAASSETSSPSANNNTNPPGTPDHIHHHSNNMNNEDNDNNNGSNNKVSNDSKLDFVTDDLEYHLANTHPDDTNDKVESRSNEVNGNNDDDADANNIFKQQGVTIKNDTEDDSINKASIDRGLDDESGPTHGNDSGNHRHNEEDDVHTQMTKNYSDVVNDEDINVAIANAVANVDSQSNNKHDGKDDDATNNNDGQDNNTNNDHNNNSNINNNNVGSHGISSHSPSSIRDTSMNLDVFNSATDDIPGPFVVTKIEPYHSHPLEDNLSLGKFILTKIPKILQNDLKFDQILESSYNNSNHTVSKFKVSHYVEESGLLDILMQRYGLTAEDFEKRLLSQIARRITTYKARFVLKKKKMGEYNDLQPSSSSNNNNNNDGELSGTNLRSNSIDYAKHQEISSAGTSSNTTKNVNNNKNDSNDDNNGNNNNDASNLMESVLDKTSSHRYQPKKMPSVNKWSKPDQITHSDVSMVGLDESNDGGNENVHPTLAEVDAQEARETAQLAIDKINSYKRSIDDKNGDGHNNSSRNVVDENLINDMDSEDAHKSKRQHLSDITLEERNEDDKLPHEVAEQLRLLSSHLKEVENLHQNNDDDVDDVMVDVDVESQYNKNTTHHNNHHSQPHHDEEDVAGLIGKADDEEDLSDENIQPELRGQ
In short: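 Yeast transcription factors carrying a GST tag, as full-length proteins or DNA-binding domains, were produced by PURExpress in vitro transcription/translation. About 100-200 nM protein was applied to universal all-10-mer Agilent arrays, double-stranded by primer extension on fresh or once-stripped slides. Bound protein was detected with fluorescent anti-GST, and scans were normalised with masliner. The Universal PBM Analysis Suite gave each ungapped eight-base word, pooled with its reverse complement, an E-score, a modified Wilcoxon-Mann-Whitney statistic.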

Row | Sequence | PBM E-score
1 | ATCAACCC | 0.197
2 | GCTTCCCC | -0.304
3 | GTCACTAA | 0.393
4 | ATTACCGC | 0.0374
5 | TAGTCTCA | 0.0351
6 | AAGGGTGC | 0.0759
7 | ACCCCACA | -0.115
8 | CATTTCCG | 0.124
9 | AACCTACT | -0.257
10 | CTCGGAGC | -0.096
11 | ACCCAGAG | -0.0714
12 | CTACGACA | 0.263
13 | CCCGCCAG | -0.105
14 | CAAAAAGA | 0.0578
15 | CGTTAGGC | -0.00562
16 | TAACCCTA | -0.156
17 | GCGTAGCA | 0.0569
18 | ACCGCCGT | 0.129
19 | AACTCATT | -0.0215
20 | CATGCATG | -0.0319
21 | AGTGGCCA | -0.172
22 | TAGTTTAA | 0.0583
23 | CGAGACTC | 0.0667
24 | GAGGTCGC | 0.0116
25 | GACCGGGC | -0.123

Row | Sequence | PBM E-score
26 | AGTACCGG | -0.202
27 | AGAATACC | 0.177
28 | CTAAGTAG | 0.147
29 | GAGACTGA | -0.0623
30 | GAATCGAC | -0.0108
31 | CTAACCTA | 0.0259
32 | CGCTTACA | -0.088
33 | GCCCATAA | -0.0532
34 | AATTACCA | -0.0141
35 | TGTAGCAA | 0.115
36 | GCTCACCA | -0.17
37 | GGGCAGGA | -0.0977
38 | AAGCTTCC | -0.0959
39 | ATTATGTC | 0.303
40 | CTGTAGCC | -0.271
41 | ATCGGCGA | -0.0365
42 | AACGATTA | 0.172
43 | ATACGTAT | 0.224
44 | ATAGATTC | 0.0566
45 | ACCCTGCA | 0.0315
46 | CAACATGG | -0.159
47 | ATGGCACG | -0.159
48 | GCTCCCCA | -0.247
49 | CTTGGGCA | -0.0573
50 | AAAAGTGT | -0.12

2 records picked at random from those above:
Row | Sequence | PBM E-score
37 | GGGCAGGA | -0.0977
10 | CTCGGAGC | -0.096

(continued)

Row | Sequence | PBM E-score
51 | GGGACGTA | 0.159
52 | CGAATGAG | -0.0243
53 | ATTTTACG | 0.322
54 | ATAGATCC | 0.0856
55 | AGACGAGA | 0.0552
56 | CCTCTAAC | -0.0207
57 | GGCTAAAA | -0.0238
58 | ACTGACAT | 0.0708
59 | ACGATCCA | 0.224
60 | TAATAACA | 0.104
61 | GCCATGTA | 0.0666
62 | AACTTTAT | 0.00309
63 | AGACAAAG | 0.159
64 | CAGTAATC | -0.00799
65 | CTTAGTCA | 0.163
66 | AAGCTACG | 0.0386
67 | GTATTGGA | -0.0246
68 | GATTGAGA | 0.21
69 | AAGGTTGG | -0.0914
70 | CCACTCCG | -0.00036
71 | GATAGTCC | 0.0357
72 | GCATCGCA | -0.404
73 | AATTAGAT | 0.0466
74 | GCCGAAAC | -0.0478
75 | AACGATAC | 0.32

Row | Sequence | PBM E-score
76 | CCACGTAA | 0.0425
77 | GCAATGCC | -0.0197
78 | GTCCCCCA | -0.212
79 | CCTAAGAA | 0.1
80 | ATATTCAA | 0.185
81 | GGACAAGA | -0.0306
82 | ACCGGATC | -0.107
83 | AGGCGGTC | -0.166
84 | CCTCGCGA | -0.0731
85 | ACAAGTGG | -0.0893
86 | CGATGAAC | -0.0063
87 | ACATGCAA | -0.0851
88 | ATCCGTAC | 0.261
89 | GACAATCA | 0.156
90 | CTTAAACC | -0.179
91 | GGACCACC | -0.184
92 | GGCCCACA | 0.0107
93 | CGAGTAAG | -0.0754
94 | CCTGTTTA | -0.0243
95 | CACGTGGC | -0.00572
96 | GCGATGAA | 0.132
97 | AGCTAGTA | 0.0346
98 | CTTCAAAC | 0.128
99 | ATGGTAGA | -0.0168
100 | CTGAAACA | 0.00579

Row | Sequence | PBM E-score
101 | AACACGGT | 0.163
102 | GAGGAGGC | -0.237
103 | AGCTAGCT | -0.256
104 | AGTATTTA | 0.152
105 | GGAACATA | -0.0483
106 | CTAACGGA | 0.0911
107 | CGATGTAG | -0.123
108 | CTTTCTTC | -0.0154
109 | AACAAATT | 0.201
110 | AGGATACG | 0.0264
111 | AGAAATAC | 0.158
112 | AGCATGGG | -0.148
113 | GAATGAGA | 0.0436
114 | AAGCAAGC | -0.164
115 | AGTGAGCG | 0.24
116 | GTAAATAC | -0.0474
117 | GGAGTGCA | -0.249
118 | TTGCGAAA | -0.00754
119 | AAGTTTCC | 0.0534
120 | AATGTGCA | 0.0308
121 | GAAAAGTA | 0.0413
122 | GTAGTCAC | 0.0419
123 | CTAGAGGA | -0.224
124 | AGAGCTAG | -0.0458
125 | AGTGTAGC | -0.1

Row | Sequence | PBM E-score
126 | GCCTGCAA | -0.152
127 | AAGGGGTG | -0.0995
128 | ACTTCGAT | 0.106
129 | CGCTACTC | -0.00995
130 | AAAGAATC | -0.245
131 | GATCTGCC | 0.00672
132 | ATACGATC | 0.307
133 | ACAGCAAT | 0.0812
134 | GAGCAGCA | -0.11
135 | CCGTTCCC | 0.159
136 | ATTTTTGA | 0.0422
137 | AAGTGGTA | -0.00849
138 | ACCGAGGG | -0.371
139 | CCTCACCA | -0.1
140 | AAGAAATG | 0.0999
141 | AGGGCTCG | -0.202
142 | CGGGTAAA | 0.036
143 | AGCGCGGC | -0.149
144 | CCCGGGTC | -0.279
145 | ATTTGGTA | 0.153
146 | CGATTAAA | 0.0727
147 | GATCTGAC | 0.105
148 | CTACTCTA | -0.0263
149 | CTATTGAG | -0.0162
150 | GATTAATC | 0.0366

As entered above.
Entry for CCCGGGTC under PBM E-score: -0.279
Entry for CTACTCTA under PBM E-score: -0.0263
Entry for ACAGCAAT under PBM E-score: 0.0812
Entry for AAGGGGTG under PBM E-score: -0.0995
Entry for GATCTGAC under PBM E-score: 0.105

Remaining list, next part.

Row | Sequence | PBM E-score
151 | AGCGTTCC | 0.0725
152 | CATCCTCG | -0.127
153 | ATATGCAA | 0.0892
154 | ATATTATG | 0.249
155 | GTCGCTAA | 0.191
156 | ACTTAATG | 0.192
157 | AACTATTA | 0.035
158 | CCAACGAG | 0.0639
159 | CTGGTCCC | -0.157
160 | ACGGAGAT | -0.101
161 | AAATTAAC | -0.0496
162 | AGCCGATG | -0.1
163 | ATTAGACA | 0.119
164 | GGGACCAC | -0.0704
165 | AGGTACTG | -0.0376
166 | TTTCGAAA | 0.0414
167 | ATCAAACA | 0.0965
168 | AATCCCAA | 0.0116
169 | ATATTGAT | 0.2
170 | CCTCGTTC | 0.0231
171 | TATTACGA | 0.311
172 | ACGCATAT | 0.098
